No constants are given. Whether binding was seen depends on the method and setting. In cells and extracts the contact can be indirect. Some binding calls cover weakened binding; strength is not graded here.
What was measured:
Test in all cases: split reporter
[1] = target: delta opioid receptor (DOR) C-terminally tagged with SmBiT (UniProt P41143)
[2] = target: nociceptin receptor (NOP) C-terminally tagged with SmBiT (UniProt P41146)
[3] = target: mu opioid receptor (MOR) C-terminally tagged with SmBiT (UniProt P35372)

Sequences of proteins named here, by UniProt entry; tags and fusion partners are left off.
UniProt P41143: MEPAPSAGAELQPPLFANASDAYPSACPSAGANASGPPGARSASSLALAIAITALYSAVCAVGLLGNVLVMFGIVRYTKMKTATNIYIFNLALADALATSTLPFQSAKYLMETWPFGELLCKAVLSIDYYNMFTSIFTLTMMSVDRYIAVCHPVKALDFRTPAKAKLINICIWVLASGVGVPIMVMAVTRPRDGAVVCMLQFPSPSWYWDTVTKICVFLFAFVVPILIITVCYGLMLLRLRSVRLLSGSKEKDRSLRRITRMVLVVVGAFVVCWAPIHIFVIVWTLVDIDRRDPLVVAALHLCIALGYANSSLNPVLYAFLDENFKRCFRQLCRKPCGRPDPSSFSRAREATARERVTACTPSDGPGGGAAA
UniProt P41146: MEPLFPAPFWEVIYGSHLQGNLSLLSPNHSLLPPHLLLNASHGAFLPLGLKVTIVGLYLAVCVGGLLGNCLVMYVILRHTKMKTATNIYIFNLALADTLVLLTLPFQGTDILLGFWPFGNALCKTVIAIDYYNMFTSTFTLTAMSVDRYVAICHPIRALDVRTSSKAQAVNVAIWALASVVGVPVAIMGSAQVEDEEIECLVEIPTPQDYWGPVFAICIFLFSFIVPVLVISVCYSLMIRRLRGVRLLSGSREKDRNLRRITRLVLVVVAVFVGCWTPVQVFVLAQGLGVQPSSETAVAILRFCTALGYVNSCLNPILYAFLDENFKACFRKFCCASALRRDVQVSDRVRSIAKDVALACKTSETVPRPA
UniProt P35372: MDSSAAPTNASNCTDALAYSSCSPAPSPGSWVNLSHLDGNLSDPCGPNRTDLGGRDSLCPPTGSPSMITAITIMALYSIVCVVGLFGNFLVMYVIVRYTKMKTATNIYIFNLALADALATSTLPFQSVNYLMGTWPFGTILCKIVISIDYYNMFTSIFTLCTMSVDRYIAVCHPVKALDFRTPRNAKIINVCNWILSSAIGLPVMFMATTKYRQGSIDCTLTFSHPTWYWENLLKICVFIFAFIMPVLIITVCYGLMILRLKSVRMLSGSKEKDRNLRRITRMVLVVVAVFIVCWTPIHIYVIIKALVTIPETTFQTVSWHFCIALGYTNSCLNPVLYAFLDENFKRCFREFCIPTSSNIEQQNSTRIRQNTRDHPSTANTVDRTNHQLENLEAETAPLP
UniProt P49407: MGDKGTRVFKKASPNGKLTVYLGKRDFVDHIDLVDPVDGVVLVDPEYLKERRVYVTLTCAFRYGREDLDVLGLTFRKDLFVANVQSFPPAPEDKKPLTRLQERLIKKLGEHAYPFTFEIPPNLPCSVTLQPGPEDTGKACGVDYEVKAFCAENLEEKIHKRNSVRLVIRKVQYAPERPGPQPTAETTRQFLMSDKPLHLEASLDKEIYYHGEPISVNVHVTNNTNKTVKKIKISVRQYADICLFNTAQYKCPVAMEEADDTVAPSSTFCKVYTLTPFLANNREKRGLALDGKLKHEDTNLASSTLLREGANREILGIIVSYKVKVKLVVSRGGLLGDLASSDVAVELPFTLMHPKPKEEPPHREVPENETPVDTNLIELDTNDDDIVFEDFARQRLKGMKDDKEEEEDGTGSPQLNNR

Measured: binding

human β-arrestin-1 (arrestin-2) N-terminally fused to LgBiT (from UniProt P49407 1-418)
binds: [1] | [2] | [3]

Source: publication PMC7305236
